Measured values published in article PMC11109516.
No constants are given. Whether binding was seen depends on the method and setting. Binding seen in cells or lysates may run through a third protein. Some entries that bind do so weakly or less than the wild type. For part of these data: Tags and fused reporters may be left off the sequences shown.

Legend:
[1] = target: T1, USP18, as used in the co-precipitations of the supplementary figures (S1D, S5A, S5B, S6D) (UniProt Q9UMW8); assay: co-IP; co-precipitations of the supplementary figures (S1D, S2Q, S5A to C, S6D and E); legends not shown; HEK293T cells where the text tells; S2Q with control or USP18 knock-down, S5C with overexpressed USP18 or USP18 C64A
T1 sequence: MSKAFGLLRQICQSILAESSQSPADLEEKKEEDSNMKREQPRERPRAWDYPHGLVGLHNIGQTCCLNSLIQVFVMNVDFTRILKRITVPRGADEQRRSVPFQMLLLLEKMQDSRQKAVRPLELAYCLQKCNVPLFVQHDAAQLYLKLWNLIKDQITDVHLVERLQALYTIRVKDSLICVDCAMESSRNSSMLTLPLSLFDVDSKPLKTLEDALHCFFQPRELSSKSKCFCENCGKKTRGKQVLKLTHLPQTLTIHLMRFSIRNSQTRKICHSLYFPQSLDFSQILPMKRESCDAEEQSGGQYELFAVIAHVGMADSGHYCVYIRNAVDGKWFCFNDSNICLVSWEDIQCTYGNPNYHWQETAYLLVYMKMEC

[2] = target: T2, GSDMD, endogenous in THP-1-derived macrophages (human (endogenous in THP-1)) (UniProt P57764); assay: co-IP; endogenous proteins in THP-1-derived macrophages (mock, LPS, LPS plus ATP, poly(dA:dT) or flagellin; wild type, USP18-KD or USP18-KO); antibodies plus Protein A/G beads at 4 °C overnight
T2 sequence: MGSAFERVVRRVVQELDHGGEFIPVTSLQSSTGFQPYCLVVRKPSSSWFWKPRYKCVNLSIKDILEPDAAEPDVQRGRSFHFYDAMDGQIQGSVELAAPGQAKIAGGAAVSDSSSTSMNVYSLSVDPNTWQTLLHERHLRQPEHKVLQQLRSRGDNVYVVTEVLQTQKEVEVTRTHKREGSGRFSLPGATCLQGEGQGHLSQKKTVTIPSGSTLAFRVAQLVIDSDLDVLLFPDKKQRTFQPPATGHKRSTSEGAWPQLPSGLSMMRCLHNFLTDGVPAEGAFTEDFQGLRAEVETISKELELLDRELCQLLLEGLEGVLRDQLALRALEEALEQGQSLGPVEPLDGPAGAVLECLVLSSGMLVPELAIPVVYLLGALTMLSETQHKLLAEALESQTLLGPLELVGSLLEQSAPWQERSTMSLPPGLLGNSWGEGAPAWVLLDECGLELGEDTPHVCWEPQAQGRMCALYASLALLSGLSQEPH

[3] = target: T3, Flag-GSDMD, wild type (human) (UniProt P57764); assay: co-IP; HEK293T cells transfected with tagged proteins; lysates with anti-Flag or anti-Myc beads at 4 °C overnight, washed with low-salt lysis buffer (50 mM HEPES pH 8.0, 150 mM NaCl, 1% Triton X-100); Fig. 3M to O after Baf A1 (0.2 μM, 6 h)
T3 sequence: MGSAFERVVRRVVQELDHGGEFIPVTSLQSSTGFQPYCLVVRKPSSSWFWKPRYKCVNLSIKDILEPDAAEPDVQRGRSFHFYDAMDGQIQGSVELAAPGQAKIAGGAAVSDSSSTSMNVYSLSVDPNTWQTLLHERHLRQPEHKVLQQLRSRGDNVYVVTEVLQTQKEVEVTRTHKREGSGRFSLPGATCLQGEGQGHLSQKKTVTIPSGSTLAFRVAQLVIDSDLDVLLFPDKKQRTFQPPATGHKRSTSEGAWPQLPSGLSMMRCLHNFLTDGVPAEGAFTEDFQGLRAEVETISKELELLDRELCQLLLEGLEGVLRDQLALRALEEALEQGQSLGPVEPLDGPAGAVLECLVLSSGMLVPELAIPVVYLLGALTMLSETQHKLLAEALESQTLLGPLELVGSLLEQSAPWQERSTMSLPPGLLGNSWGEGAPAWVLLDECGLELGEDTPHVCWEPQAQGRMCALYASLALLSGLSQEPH

[4] = target: T4, GSDMD, wild type, as used in the co-precipitations of the supplementary figures (S1D, S2Q, S5C, S6D, S6E) (human) (UniProt P57764); assay: co-IP; co-precipitations of the supplementary figures (S1D, S2Q, S5A to C, S6D and E); legends not shown; HEK293T cells where the text tells; S2Q with control or USP18 knock-down, S5C with overexpressed USP18 or USP18 C64A
T4 sequence: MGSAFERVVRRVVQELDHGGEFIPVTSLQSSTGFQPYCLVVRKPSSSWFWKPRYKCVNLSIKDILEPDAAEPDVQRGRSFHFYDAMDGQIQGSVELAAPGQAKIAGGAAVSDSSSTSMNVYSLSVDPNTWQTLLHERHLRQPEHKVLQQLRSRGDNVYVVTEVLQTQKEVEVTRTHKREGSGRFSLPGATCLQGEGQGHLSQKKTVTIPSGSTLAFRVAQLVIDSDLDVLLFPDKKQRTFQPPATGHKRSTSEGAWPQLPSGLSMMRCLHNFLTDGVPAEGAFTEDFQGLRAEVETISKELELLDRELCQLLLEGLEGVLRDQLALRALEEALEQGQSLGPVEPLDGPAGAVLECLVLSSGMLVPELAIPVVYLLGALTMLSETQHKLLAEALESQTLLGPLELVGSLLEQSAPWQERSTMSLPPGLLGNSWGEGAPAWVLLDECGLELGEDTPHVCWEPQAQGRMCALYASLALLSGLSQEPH

[5] = target: T3, Flag-GSDMD, wild type (human); assay: co-IP; BECN1-KO HEK293T cells transfected with Myc-CASP1 or Myc-CASP4 and Flag-GSDMD WT or K168R for 24 h; level of co-precipitated Myc-CASP1/4 quantified
Flag-GSDMD K168R (human) = target: T5, Flag-GSDMD K168R (human) (UniProt P57764); assay: as above
T5 sequence: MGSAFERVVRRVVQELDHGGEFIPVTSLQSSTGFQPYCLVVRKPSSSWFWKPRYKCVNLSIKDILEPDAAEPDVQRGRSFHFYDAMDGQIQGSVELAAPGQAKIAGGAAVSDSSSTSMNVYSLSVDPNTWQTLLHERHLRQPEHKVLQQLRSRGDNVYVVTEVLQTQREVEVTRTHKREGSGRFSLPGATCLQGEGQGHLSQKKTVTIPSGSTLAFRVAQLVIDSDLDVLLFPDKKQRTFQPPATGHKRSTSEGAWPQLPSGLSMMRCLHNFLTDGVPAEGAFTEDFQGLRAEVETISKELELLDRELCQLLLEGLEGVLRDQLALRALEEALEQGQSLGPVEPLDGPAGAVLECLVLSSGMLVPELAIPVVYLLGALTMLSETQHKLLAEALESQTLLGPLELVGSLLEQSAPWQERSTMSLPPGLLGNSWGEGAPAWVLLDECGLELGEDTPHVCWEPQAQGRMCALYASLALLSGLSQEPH

B1: GSDMD, wild type, as used in the co-precipitations of the supplementary figures (S1D, S2Q, S5C, S6D, S6E) (protein, UniProt P57764 1-484)
chain: MGSAFERVVRRVVQELDHGGEFIPVTSLQSSTGFQPYCLVVRKPSSSWFWKPRYKCVNLSIKDILEPDAAEPDVQRGRSFHFYDAMDGQIQGSVELAAPGQAKIAGGAAVSDSSSTSMNVYSLSVDPNTWQTLLHERHLRQPEHKVLQQLRSRGDNVYVVTEVLQTQKEVEVTRTHKREGSGRFSLPGATCLQGEGQGHLSQKKTVTIPSGSTLAFRVAQLVIDSDLDVLLFPDKKQRTFQPPATGHKRSTSEGAWPQLPSGLSMMRCLHNFLTDGVPAEGAFTEDFQGLRAEVETISKELELLDRELCQLLLEGLEGVLRDQLALRALEEALEQGQSLGPVEPLDGPAGAVLECLVLSSGMLVPELAIPVVYLLGALTMLSETQHKLLAEALESQTLLGPLELVGSLLEQSAPWQERSTMSLPPGLLGNSWGEGAPAWVLLDECGLELGEDTPHVCWEPQAQGRMCALYASLALLSGLSQEPH
[1]
  binding: binds

B2: NDP52, endogenous in THP-1-derived macrophages (protein, UniProt Q13137 1-446)
chain: MEETIKDPPTSAVLLDHCHFSQVIFNSVEKFYIPGGDVTCHYTFTQHFIPRRKDWIGIFRVGWKTTREYYTFMWVTLPIDLNNKSAKQQEVQFKAYYLPKDDEYYQFCYVDEDGVVRGASIPFQFRPENEEDILVVTTQGEVEEIEQHNKELCKENQELKDSCISLQKQNSDMQAELQKKQEELETLQSINKKLELKVKEQKDYWETELLQLKEQNQKMSSENEKMGIRVDQLQAQLSTQEKEMEKLVQGDQDKTEQLEQLKKENDHLFLSLTEQRKDQKKLEQTVEQMKQNETTAMKKQQELMDENFDLSKRLSENEIICNALQRQKERLEGENDLLKRENSRLLSYMGLDFNSLPYQVPTSDEGGARQNPGLAYGNPYSGIQESSSPSPLSIKKCPICKADDICDHTLEQQQMQPLCFNCPICDKIFPATEKQIFEDHVFCHSL
[2]
  binding: binds

B3: HA-NDP52 (protein, UniProt Q13137 1-446)
chain: MEETIKDPPTSAVLLDHCHFSQVIFNSVEKFYIPGGDVTCHYTFTQHFIPRRKDWIGIFRVGWKTTREYYTFMWVTLPIDLNNKSAKQQEVQFKAYYLPKDDEYYQFCYVDEDGVVRGASIPFQFRPENEEDILVVTTQGEVEEIEQHNKELCKENQELKDSCISLQKQNSDMQAELQKKQEELETLQSINKKLELKVKEQKDYWETELLQLKEQNQKMSSENEKMGIRVDQLQAQLSTQEKEMEKLVQGDQDKTEQLEQLKKENDHLFLSLTEQRKDQKKLEQTVEQMKQNETTAMKKQQELMDENFDLSKRLSENEIICNALQRQKERLEGENDLLKRENSRLLSYMGLDFNSLPYQVPTSDEGGARQNPGLAYGNPYSGIQESSSPSPLSIKKCPICKADDICDHTLEQQQMQPLCFNCPICDKIFPATEKQIFEDHVFCHSL
[3]
  binding: binds

B4: CALCOCO2/NDP52, as used in Fig. S2Q (protein, UniProt Q13137 1-446)
chain: MEETIKDPPTSAVLLDHCHFSQVIFNSVEKFYIPGGDVTCHYTFTQHFIPRRKDWIGIFRVGWKTTREYYTFMWVTLPIDLNNKSAKQQEVQFKAYYLPKDDEYYQFCYVDEDGVVRGASIPFQFRPENEEDILVVTTQGEVEEIEQHNKELCKENQELKDSCISLQKQNSDMQAELQKKQEELETLQSINKKLELKVKEQKDYWETELLQLKEQNQKMSSENEKMGIRVDQLQAQLSTQEKEMEKLVQGDQDKTEQLEQLKKENDHLFLSLTEQRKDQKKLEQTVEQMKQNETTAMKKQQELMDENFDLSKRLSENEIICNALQRQKERLEGENDLLKRENSRLLSYMGLDFNSLPYQVPTSDEGGARQNPGLAYGNPYSGIQESSSPSPLSIKKCPICKADDICDHTLEQQQMQPLCFNCPICDKIFPATEKQIFEDHVFCHSL
[4]
  binding: binds

B5: Myc-caspase-4 (enzyme, UniProt P49662 1-377)
chain: MAEGNHRKKPLKVLESLGKDFLTGVLDNLVEQNVLNWKEEEKKKYYDAKTEDKVRVMADSMQEKQRMAGQMLLQTFFNIDQISPNKKAHPNMEAGPPESGESTDALKLCPHEEFLRLCKERAEEIYPIKERNNRTRLALIICNTEFDHLPPRNGADFDITGMKELLEGLDYSVDVEENLTARDMESALRAFATRPEHKSSDSTFLVLMSHGILEGICGTVHDEKKPDVLLYDTIFQIFNNRNCLSLKDKPKVIIVQACRGANRGELWVRDSPASLEVASSQSSENLEEDAVYKTHVEKDFIAFCSSTPHNVSWRDSTMGSIFITQLITCFQKYSWCCHLEEVFRKVQQSFETPRAKAQMPTIERLSMTRYFYLFPGN
[5]
  binding: binds
Flag-GSDMD K168R (human)
  binding: binds
